Measurements as given in paper PMC5418627.
These are yes or no findings as the source states them, for the method shown. Binding seen in cells or lysates may run through a third protein. Some results given as binding are weak or reduced against the parent protein; the word gives no strength. Where a sequence is shown, tags or fusion partners need not be part of it.

By UniProt entry, the sequences of proteins in these tests, tags left out.
UniProt P61077: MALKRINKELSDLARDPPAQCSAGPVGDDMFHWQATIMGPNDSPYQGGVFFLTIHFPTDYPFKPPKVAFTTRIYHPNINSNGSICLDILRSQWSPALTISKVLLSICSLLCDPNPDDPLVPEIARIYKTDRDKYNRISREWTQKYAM

Legend:
Experiment in all cases: co-IP
[1] = biological target: T1, Flag-RIG-I (full length) (human) (UniProt O95786)
T1 sequence: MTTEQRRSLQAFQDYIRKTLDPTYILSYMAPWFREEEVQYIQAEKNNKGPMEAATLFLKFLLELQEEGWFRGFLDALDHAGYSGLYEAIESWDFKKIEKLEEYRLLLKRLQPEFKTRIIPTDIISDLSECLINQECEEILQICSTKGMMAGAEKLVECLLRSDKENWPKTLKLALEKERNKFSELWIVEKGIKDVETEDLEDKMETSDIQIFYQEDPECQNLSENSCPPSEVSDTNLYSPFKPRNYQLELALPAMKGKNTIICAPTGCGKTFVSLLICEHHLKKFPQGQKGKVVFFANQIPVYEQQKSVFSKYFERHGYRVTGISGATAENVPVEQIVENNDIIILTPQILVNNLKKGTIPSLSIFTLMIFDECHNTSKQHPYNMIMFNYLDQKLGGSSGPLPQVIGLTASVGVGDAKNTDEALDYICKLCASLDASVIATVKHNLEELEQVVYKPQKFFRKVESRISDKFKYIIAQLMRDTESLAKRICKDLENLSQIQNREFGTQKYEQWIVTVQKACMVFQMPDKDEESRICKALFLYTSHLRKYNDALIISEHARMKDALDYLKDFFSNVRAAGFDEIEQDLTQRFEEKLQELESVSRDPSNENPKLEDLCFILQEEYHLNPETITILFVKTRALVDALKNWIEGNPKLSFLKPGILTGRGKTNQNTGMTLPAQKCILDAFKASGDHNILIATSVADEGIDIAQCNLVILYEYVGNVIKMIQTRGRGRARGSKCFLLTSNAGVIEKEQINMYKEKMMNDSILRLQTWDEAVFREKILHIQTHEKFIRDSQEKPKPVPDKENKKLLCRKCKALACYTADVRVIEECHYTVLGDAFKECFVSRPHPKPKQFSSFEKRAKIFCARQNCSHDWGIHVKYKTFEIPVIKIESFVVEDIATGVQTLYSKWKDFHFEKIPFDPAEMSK

[2] = biological target: T2, Flag-RIG-I-2CARD (aa 1-200) (human) (UniProt O95786)
T2 sequence: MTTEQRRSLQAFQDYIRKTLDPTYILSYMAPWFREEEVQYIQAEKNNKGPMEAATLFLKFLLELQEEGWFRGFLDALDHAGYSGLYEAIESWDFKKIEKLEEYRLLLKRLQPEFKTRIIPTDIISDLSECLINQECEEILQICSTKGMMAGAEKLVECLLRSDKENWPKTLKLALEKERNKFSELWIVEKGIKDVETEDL

[3] = biological target: T3, Flag-RIG-I-ΔRD (aa 1-794) (human) (UniProt O95786)
T3 sequence: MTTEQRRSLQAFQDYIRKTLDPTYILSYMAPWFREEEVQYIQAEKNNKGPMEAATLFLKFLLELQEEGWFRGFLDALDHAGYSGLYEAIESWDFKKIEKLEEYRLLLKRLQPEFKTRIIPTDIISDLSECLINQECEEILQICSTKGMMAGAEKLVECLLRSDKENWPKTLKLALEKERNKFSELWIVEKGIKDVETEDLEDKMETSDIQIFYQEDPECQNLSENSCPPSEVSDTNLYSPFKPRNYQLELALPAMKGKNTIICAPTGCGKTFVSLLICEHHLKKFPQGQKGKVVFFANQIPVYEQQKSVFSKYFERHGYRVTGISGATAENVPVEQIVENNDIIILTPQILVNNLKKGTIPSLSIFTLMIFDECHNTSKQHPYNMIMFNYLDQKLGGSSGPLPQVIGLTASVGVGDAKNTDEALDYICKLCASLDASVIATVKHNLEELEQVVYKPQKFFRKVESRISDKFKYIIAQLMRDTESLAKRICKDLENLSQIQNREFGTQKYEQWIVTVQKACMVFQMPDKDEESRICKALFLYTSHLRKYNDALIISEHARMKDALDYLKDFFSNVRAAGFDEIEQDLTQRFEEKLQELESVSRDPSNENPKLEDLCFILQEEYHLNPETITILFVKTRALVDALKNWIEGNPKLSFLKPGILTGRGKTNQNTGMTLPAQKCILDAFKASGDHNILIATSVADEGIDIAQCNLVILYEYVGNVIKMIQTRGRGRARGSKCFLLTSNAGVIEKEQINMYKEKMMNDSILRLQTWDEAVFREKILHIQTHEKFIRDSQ

Flag-Ube2D3 (human) = Flag-Ube2D3 (human) (UniProt P61077)
Flag-Ube2N (human) = Flag-Ube2N (human) (UniProt P61088)
[4] = biological target: T4, Flag-Ube2N (human), P61088; details: remark: other sources report otherwise
T4 chain: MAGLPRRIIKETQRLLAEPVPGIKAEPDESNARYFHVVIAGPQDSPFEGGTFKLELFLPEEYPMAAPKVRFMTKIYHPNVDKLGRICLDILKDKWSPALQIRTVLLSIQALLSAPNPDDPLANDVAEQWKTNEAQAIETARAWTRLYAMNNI

Flag-Riplet (human) = biological target: T5, Flag-Riplet (human) (UniProt Q8IUD6)
T5 sequence: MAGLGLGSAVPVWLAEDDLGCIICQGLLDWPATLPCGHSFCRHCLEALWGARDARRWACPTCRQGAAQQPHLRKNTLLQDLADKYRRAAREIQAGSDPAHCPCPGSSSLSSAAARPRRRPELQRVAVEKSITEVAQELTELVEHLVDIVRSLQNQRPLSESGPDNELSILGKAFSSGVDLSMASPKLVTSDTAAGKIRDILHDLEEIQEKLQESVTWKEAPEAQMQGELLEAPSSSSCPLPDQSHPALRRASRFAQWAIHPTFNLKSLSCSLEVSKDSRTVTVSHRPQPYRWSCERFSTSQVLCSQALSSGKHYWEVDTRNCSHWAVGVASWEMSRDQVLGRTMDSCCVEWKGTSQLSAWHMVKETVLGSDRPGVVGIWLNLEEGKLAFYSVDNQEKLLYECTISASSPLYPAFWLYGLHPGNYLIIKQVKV

[5] = biological target: T6, Flag-Riplet-SPRY (aa 261-428) (human) (UniProt Q8IUD6)
T6 sequence: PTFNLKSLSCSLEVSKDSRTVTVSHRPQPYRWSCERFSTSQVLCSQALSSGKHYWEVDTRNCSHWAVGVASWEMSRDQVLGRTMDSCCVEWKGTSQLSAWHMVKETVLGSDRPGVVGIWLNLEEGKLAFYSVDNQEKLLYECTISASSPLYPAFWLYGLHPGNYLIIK

Measured: binding

B1: HA-Riplet (protein, UniProt Q8IUD6 1-432)
chain: T5 sequence
binds: [1] | [2] | [3] | Flag-Ube2D3 (human) | Flag-Ube2N (human)

B2: HA-RIG-I, O95786 1-925 (protein)
chain: T1 sequence
binds: [4]

B3: HA-RIG-I (protein, UniProt O95786 1-925)
chain: T1 sequence
binds: Flag-Riplet (human) | [5] | Flag-Ube2D3 (human)
